Data as given in PubChem BioAssay AID720505 (Drosophila RNAi Screening Center, 2013).
The deposit covers about 20,000 reagents; shown is a random part of those with a known target gene and a result. Over the whole deposit, about 2,100 (10%) are marked active. 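Raw plate signals without normalisation; calls rest on control-based scores that were not deposited; replicate 2 separates called from uncalled poorly.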 Entries without a mark were called inactive. The numbers tell different reagents against one gene apart. The record does not give: the amount of reagent, the time to read-out.

- Test: 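Fly regulators or components of the CRAC channel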 (primary screen)
- Cells: Drosophila S2R+ cells
- Reagents: long dsRNA against Drosophila genes
- Treatment: thapsigargin (2 µM) in calcium-free buffer to empty internal stores, then 2 mM calcium added back
- Measured: 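Stores emptied by 2 µM thapsigargin without calcium, then 2 mM calcium re-added; fluo-4 fluorescence followed by FLIPR in 384-well plates, per-well averaged endpoint, raw; two screen passes, some wells retested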
- Scale: calcium signal and retest calcium signal: higher = more calcium entry after store depletion
- Active means: 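About 1500 genes called as lowering calcium entry, by varying amounts, judged against per-plate control wells with STIM1 as positive and Rho1 as negative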
- Calls: active = called as lowering calcium entry; inactive = not called

CG13917: calcium signal, replicate 1 = 193; calcium signal, replicate 2 = 121; retest calcium signal, replicate 1 = 71.9; retest calcium signal, replicate 2 = 87.8
TyrRS-m: calcium signal, replicate 1 = 163; calcium signal, replicate 2 = 75.3
Gle1: calcium signal, replicate 1 = 157; calcium signal, replicate 2 = 144
CG4238 #1: calcium signal, replicate 1 = 61.5 (active); calcium signal, replicate 2 = 160
CG4238 #2: calcium signal, replicate 1 = 108; calcium signal, replicate 2 = 139
CG9394: calcium signal, replicate 1 = 215; calcium signal, replicate 2 = 78.9
CG15035: calcium signal, replicate 1 = 265; calcium signal, replicate 2 = 114
mRpS21: calcium signal, replicate 1 = 117; calcium signal, replicate 2 = 121
Polr3B: calcium signal, replicate 1 = 162; calcium signal, replicate 2 = 99.4
CG6418: calcium signal, replicate 1 = 90.4; calcium signal, replicate 2 = 121
CG9986: calcium signal, replicate 1 = 134; calcium signal, replicate 2 = 151
CG42812: calcium signal, replicate 1 = 191; calcium signal, replicate 2 = 129
Act57B: calcium signal, replicate 1 = 157; calcium signal, replicate 2 = 76.5
nSyb #1: calcium signal, replicate 1 = 125; calcium signal, replicate 2 = 136
nSyb #2: calcium signal, replicate 1 = 115; calcium signal, replicate 2 = 128
CG17191: calcium signal, replicate 1 = 149; calcium signal, replicate 2 = 95.9
Scgbeta: calcium signal, replicate 1 = 142; calcium signal, replicate 2 = 151
Pdhb: calcium signal, replicate 1 = 125; calcium signal, replicate 2 = 143
RpL22 #1: calcium signal, replicate 1 = 6114 (active); calcium signal, replicate 2 = 79.6; retest calcium signal, replicate 1 = 147; retest calcium signal, replicate 2 = 116
RpL22 #2: calcium signal, replicate 1 = 55.4 (active); calcium signal, replicate 2 = 78.8
CG9175: calcium signal, replicate 1 = 109; calcium signal, replicate 2 = 268
Vrp1: calcium signal, replicate 1 = 108; calcium signal, replicate 2 = 93.7
mus101: calcium signal, replicate 1 = 76.4 (active); calcium signal, replicate 2 = 85.9
ImpL2: calcium signal, replicate 1 = 67 (active); calcium signal, replicate 2 = 86.7
lqf: calcium signal, replicate 1 = 97.3; calcium signal, replicate 2 = 151
Drak #1: calcium signal, replicate 1 = 70.2; calcium signal, replicate 2 = 100
Drak #2: calcium signal, replicate 1 = 155; calcium signal, replicate 2 = 204
CaMKI: calcium signal, replicate 1 = 122; calcium signal, replicate 2 = 131

An excerpt taken from the entries so far:
CG17191: calcium signal, replicate 1 = 149; calcium signal, replicate 2 = 95.9
Scgbeta: calcium signal, replicate 1 = 142; calcium signal, replicate 2 = 151
Pdhb: calcium signal, replicate 1 = 125; calcium signal, replicate 2 = 143
RpL22 #1: calcium signal, replicate 1 = 6114 (active); calcium signal, replicate 2 = 79.6; retest calcium signal, replicate 1 = 147; retest calcium signal, replicate 2 = 116
